Data source: PubChem BioAssay AID652272 (Drosophila RNAi Screening Center, 2013)
The deposit covers about 21,000 reagents; this is a random part of those with a known target gene and a result. Of all reagents, 503 (2.4%) were called active. 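Raw plate light values, not normalised; calls rest on replicate z-scores that were not deposited; hits include reporter decreases as well as increases.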 Entries without a mark were called inactive. Reagents against one gene are numbered here. Names joined by + are all predicted targets of the reagent. The record does not give: the amount of reagent, the time to read-out.

Assay: 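Genome-wide knock-down search for components of Hedgehog signalling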 (primary screen)
Cell system: Drosophila clone 8 (Cl8) cells
Reagents: long dsRNA against Drosophila genes
Detection: 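Plate reader light from a firefly reporter under a ptc promoter fragment that responds to Hedgehog, with Renilla light as transfection reference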
Direction: firefly Hh reporter signal: higher = more ptc reporter light; Renilla reference signal: higher = more Renilla control light
Hit rule: 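Hit when the z-score averaged over two replicates is under -2 or over +3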
Meaning of the calls: active = hit: reporter lowered or raised; inactive = not a hit

ecd gave firefly Hh reporter signal, replicate 1 = 78438; firefly Hh reporter signal, replicate 2 = 73856; Renilla reference signal, replicate 1 = 4208; Renilla reference signal, replicate 2 = 3440. Against ths the deposit lists firefly Hh reporter signal, replicate 1 = 54806; firefly Hh reporter signal, replicate 2 = 22200; Renilla reference signal, replicate 1 = 1392; Renilla reference signal, replicate 2 = 1457. After knock-down of Coq6, the record shows firefly Hh reporter signal, replicate 1 = 83715; firefly Hh reporter signal, replicate 2 = 96376; Renilla reference signal, replicate 1 = 3380; Renilla reference signal, replicate 2 = 4643. After knock-down of Gk1 #1, the screen gave firefly Hh reporter signal, replicate 1 = 81929; firefly Hh reporter signal, replicate 2 = 43257; Renilla reference signal, replicate 1 = 3376; Renilla reference signal, replicate 2 = 1792. With knock-down of Gk1 #2, the record shows firefly Hh reporter signal, replicate 1 = 79380; firefly Hh reporter signal, replicate 2 = 40914; Renilla reference signal, replicate 1 = 2247; Renilla reference signal, replicate 2 = 2744. Kap-alpha3 gave firefly Hh reporter signal, replicate 1 = 98340; firefly Hh reporter signal, replicate 2 = 80784; Renilla reference signal, replicate 1 = 3705; Renilla reference signal, replicate 2 = 2224.

Against Gs1l the deposit lists firefly Hh reporter signal, replicate 1 = 66114; firefly Hh reporter signal, replicate 2 = 41321; Renilla reference signal, replicate 1 = 2038; Renilla reference signal, replicate 2 = 4848. With knock-down of Ask1, the record shows firefly Hh reporter signal, replicate 1 = 9.12e5; firefly Hh reporter signal, replicate 2 = 2.47e5; Renilla reference signal, replicate 1 = 47778; Renilla reference signal, replicate 2 = 6769. With knock-down of obst-G, the record shows firefly Hh reporter signal, replicate 1 = 81628; firefly Hh reporter signal, replicate 2 = 37793; firefly Hh reporter signal, replicate 3 = 43270; Renilla reference signal, replicate 1 = 3347; Renilla reference signal, replicate 2 = 2978. After knock-down of Noc2, the record shows firefly Hh reporter signal, replicate 1 = 40733; firefly Hh reporter signal, replicate 2 = 47072; Renilla reference signal, replicate 1 = 1681; Renilla reference signal, replicate 2 = 1786. After knock-down of CG9164 #1, the record shows firefly Hh reporter signal, replicate 1 = 3.47e5; firefly Hh reporter signal, replicate 2 = 1.33e5; Renilla reference signal, replicate 1 = 18112; Renilla reference signal, replicate 2 = 2914. With knock-down of CG9164 #2, the record shows firefly Hh reporter signal, replicate 1 = 1.54e5; firefly Hh reporter signal, replicate 2 = 1.04e5; Renilla reference signal, replicate 1 = 3682; Renilla reference signal, replicate 2 = 2320.

With knock-down of CG13185, the record shows firefly Hh reporter signal, replicate 1 = 85394; firefly Hh reporter signal, replicate 2 = 40608; Renilla reference signal, replicate 1 = 4007; Renilla reference signal, replicate 2 = 1894. vis + achi scored firefly Hh reporter signal, replicate 1 = 94105; firefly Hh reporter signal, replicate 2 = 54677; Renilla reference signal, replicate 1 = 4019; Renilla reference signal, replicate 2 = 2324. For CG15260, the values are firefly Hh reporter signal, replicate 1 = 1.21e5; firefly Hh reporter signal, replicate 2 = 59872; Renilla reference signal, replicate 1 = 3674; Renilla reference signal, replicate 2 = 4941. Pa1 gave firefly Hh reporter signal, replicate 1 = 1.16e5; firefly Hh reporter signal, replicate 2 = 3.14e5; Renilla reference signal, replicate 1 = 3874; Renilla reference signal, replicate 2 = 11699. Against Ubc2 #1 the deposit lists firefly Hh reporter signal, replicate 1 = 7.84e5; firefly Hh reporter signal, replicate 2 = 2.98e5; Renilla reference signal, replicate 1 = 36459; Renilla reference signal, replicate 2 = 10625. With knock-down of Ubc2 #2, the record shows firefly Hh reporter signal, replicate 1 = 1.15e5; firefly Hh reporter signal, replicate 2 = 51969; Renilla reference signal, replicate 1 = 3143; Renilla reference signal, replicate 2 = 5670.

After knock-down of CG17344 the results were firefly Hh reporter signal, replicate 1 = 81626; firefly Hh reporter signal, replicate 2 = 59813; Renilla reference signal, replicate 1 = 1953; Renilla reference signal, replicate 2 = 5552. With knock-down of Dhps, the screen gave firefly Hh reporter signal, replicate 1 = 51872; firefly Hh reporter signal, replicate 2 = 74661; Renilla reference signal, replicate 1 = 598; Renilla reference signal, replicate 2 = 4938. Against RpS6, the values are firefly Hh reporter signal, replicate 1 = 24785 (active); firefly Hh reporter signal, replicate 2 = 25376; Renilla reference signal, replicate 1 = 1226; Renilla reference signal, replicate 2 = 1211.

Looked up above.
Under “firefly Hh reporter signal, replicate 1”, Ask1 shows 9.12e5
Value for vis + achi in “firefly Hh reporter signal, replicate 2”: 54677
